In the supplement of paper PMC10849652:
The other results are listed elsewhere or left out.

Amino acid sequences for entries named in this document (tags omitted). A change or cut given only in a name is not applied to a line headed by its entry.
UniProt Q92543: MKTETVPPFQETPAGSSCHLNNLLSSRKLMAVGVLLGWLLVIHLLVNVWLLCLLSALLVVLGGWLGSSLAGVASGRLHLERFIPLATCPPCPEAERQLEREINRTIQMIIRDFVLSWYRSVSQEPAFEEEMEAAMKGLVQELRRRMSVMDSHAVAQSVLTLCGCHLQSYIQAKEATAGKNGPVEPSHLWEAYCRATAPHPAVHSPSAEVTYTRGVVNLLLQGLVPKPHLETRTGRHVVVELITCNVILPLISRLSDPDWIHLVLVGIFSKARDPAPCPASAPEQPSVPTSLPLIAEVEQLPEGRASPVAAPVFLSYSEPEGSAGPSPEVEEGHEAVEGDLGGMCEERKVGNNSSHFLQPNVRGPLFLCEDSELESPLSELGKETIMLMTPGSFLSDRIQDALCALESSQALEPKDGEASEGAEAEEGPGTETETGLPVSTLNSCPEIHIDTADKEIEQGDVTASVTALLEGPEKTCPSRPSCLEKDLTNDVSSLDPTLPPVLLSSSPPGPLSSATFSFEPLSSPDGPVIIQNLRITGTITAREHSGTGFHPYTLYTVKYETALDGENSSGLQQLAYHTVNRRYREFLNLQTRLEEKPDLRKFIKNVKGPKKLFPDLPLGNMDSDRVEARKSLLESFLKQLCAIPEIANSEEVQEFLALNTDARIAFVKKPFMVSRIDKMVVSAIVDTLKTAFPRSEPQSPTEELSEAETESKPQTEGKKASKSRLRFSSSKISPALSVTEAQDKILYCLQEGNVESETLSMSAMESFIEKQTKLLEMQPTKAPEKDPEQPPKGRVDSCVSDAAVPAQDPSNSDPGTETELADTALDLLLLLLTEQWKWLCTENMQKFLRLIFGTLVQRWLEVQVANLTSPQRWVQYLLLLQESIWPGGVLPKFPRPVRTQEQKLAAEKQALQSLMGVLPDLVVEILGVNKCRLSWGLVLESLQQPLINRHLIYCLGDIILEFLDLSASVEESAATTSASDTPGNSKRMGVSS
UniProt Q9H3E2: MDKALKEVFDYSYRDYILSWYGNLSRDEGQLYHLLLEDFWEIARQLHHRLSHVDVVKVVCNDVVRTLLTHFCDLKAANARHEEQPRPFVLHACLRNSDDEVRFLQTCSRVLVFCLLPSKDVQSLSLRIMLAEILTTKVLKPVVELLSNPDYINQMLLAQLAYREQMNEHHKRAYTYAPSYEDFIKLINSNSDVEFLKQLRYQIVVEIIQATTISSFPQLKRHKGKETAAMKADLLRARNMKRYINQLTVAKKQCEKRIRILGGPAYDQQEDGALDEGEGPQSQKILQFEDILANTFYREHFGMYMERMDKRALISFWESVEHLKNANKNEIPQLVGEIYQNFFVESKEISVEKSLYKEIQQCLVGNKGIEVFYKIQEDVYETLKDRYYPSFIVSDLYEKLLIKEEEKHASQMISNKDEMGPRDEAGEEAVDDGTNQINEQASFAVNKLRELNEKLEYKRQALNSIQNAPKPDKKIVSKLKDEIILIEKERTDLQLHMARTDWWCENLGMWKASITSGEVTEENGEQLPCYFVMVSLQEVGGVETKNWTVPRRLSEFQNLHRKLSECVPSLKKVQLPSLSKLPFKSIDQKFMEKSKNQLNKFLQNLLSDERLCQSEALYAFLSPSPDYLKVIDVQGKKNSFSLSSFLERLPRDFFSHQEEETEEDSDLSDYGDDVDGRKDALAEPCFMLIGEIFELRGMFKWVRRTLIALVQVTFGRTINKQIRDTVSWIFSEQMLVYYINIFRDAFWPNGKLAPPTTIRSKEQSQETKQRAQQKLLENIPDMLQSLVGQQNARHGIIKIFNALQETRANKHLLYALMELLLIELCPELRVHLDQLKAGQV
UniProt Q9Y5W7: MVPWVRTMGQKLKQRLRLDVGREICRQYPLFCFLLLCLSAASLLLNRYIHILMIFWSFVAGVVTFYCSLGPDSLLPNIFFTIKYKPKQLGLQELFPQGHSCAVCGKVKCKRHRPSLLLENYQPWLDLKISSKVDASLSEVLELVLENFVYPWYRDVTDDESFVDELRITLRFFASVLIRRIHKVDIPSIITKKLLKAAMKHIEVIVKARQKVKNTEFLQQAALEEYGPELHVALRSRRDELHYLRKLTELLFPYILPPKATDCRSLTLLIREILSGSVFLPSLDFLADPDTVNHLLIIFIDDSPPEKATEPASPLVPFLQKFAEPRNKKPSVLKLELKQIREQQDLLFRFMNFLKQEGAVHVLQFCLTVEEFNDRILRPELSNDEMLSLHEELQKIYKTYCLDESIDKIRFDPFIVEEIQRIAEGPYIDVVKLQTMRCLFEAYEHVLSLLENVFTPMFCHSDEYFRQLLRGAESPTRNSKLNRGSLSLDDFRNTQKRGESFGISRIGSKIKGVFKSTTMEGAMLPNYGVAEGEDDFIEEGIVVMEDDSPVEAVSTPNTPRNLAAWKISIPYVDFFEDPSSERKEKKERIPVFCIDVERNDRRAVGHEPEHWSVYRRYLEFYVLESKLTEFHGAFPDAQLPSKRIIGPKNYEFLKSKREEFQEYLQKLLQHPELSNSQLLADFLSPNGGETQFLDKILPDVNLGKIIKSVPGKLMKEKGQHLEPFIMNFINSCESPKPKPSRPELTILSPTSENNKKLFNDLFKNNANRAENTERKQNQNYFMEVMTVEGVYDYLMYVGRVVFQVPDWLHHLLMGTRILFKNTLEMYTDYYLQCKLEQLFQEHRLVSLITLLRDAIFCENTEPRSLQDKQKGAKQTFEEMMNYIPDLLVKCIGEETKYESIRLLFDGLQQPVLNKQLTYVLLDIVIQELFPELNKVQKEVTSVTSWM
UniProt O75971: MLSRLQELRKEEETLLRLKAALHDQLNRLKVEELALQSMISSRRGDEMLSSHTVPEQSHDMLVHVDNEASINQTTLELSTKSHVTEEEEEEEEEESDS
UniProt Q9Y5W8: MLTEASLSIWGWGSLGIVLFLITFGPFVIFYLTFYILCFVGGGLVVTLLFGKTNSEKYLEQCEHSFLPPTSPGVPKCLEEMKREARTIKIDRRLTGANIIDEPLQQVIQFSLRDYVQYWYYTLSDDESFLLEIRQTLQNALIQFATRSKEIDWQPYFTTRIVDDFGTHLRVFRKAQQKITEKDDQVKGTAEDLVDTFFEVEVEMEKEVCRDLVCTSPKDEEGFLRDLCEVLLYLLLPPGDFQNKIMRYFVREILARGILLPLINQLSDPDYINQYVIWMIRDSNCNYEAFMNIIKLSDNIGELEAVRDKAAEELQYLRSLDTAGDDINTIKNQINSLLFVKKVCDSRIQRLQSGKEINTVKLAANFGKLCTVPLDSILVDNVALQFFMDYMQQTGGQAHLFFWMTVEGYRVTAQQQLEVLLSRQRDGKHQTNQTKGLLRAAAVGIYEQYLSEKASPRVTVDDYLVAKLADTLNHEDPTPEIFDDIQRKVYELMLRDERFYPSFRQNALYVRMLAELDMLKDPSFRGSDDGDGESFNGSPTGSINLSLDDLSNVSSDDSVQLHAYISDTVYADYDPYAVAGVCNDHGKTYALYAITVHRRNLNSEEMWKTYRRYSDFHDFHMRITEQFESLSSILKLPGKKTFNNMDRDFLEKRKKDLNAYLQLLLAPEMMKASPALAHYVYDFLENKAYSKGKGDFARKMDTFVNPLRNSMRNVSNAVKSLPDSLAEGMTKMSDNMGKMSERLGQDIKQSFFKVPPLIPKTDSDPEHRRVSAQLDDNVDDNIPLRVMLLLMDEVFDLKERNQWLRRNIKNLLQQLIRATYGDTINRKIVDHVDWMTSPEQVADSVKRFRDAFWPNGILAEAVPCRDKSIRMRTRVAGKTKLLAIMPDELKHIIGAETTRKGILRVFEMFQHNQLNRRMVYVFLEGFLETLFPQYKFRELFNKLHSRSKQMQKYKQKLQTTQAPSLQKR
UniProt Q86T20: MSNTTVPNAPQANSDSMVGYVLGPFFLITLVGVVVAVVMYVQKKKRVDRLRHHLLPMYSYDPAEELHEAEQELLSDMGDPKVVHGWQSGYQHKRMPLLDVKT
UniProt P02814: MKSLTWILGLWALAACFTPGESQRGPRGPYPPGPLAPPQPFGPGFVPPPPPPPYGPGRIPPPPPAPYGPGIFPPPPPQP
UniProt Q0VAQ4: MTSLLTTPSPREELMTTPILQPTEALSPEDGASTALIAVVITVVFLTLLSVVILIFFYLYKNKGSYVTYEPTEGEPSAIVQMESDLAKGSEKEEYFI
UniProt P35712: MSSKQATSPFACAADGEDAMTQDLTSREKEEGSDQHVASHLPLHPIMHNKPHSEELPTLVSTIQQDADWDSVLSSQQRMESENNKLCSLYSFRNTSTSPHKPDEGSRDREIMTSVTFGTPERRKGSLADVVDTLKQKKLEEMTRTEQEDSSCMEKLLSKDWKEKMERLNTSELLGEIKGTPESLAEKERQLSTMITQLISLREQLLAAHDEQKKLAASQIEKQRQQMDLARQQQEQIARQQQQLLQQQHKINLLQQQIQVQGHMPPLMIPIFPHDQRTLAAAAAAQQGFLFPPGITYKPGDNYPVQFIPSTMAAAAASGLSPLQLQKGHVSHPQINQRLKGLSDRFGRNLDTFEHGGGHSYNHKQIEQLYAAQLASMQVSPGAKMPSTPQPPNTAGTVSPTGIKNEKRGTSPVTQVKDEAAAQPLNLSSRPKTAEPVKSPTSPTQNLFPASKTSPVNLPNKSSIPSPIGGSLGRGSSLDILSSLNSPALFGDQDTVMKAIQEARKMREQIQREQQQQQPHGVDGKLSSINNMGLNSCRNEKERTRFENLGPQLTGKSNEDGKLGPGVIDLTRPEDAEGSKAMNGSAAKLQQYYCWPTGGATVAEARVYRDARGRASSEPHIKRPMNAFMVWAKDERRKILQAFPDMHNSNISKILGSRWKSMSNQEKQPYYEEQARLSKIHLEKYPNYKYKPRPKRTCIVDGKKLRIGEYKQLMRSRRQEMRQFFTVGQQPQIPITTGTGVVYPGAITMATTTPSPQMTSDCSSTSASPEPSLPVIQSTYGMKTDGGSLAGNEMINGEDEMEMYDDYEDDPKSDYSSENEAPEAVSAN
UniProt Q8TAD8: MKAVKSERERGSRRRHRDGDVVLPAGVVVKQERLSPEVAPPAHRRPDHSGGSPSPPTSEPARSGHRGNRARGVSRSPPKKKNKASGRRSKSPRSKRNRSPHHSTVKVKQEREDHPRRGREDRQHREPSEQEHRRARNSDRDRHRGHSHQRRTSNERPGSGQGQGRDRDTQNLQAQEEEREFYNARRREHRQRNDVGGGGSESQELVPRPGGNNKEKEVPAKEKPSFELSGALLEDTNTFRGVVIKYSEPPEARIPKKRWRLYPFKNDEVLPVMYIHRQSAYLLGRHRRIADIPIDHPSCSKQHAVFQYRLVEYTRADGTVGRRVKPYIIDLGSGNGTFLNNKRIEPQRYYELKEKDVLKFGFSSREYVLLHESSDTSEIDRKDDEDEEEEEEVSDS
UniProt Q13425: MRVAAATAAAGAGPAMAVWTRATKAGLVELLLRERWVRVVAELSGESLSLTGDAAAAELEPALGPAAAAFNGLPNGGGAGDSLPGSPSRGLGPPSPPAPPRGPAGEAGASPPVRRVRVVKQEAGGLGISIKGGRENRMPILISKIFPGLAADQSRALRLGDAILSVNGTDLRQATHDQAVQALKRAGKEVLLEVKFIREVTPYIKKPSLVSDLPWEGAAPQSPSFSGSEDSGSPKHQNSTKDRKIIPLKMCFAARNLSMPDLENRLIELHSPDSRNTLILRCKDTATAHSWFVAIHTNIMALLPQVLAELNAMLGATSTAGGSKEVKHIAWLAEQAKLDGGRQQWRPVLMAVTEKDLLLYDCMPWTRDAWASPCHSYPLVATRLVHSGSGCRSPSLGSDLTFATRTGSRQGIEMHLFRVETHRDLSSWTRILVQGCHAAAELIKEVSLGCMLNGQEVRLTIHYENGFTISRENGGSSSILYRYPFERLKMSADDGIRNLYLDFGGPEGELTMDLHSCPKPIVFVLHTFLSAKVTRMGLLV
UniProt Q3SY56: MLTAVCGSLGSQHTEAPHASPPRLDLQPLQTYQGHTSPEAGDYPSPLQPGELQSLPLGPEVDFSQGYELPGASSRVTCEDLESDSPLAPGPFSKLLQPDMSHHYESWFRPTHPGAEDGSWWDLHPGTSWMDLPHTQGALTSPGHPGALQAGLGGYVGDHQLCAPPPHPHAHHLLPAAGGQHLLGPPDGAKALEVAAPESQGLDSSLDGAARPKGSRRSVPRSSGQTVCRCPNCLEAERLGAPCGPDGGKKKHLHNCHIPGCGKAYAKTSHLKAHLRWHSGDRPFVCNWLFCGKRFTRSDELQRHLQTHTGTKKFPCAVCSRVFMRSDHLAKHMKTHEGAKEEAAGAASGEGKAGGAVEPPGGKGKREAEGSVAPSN
UniProt Q96E16: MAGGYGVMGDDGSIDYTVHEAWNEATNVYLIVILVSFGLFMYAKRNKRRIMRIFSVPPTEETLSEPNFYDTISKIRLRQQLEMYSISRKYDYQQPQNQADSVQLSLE
UniProt P0DJ93: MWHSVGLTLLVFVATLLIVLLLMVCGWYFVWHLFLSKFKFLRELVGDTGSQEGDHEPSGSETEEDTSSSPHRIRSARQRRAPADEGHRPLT
UniProt P03973: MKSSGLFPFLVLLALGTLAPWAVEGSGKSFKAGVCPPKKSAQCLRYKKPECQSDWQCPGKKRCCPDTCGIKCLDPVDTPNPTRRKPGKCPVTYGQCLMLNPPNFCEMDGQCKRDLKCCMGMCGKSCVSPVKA

Key:
Assay in all cases: log2 fold change, soluble protein after heating vs DMSO (PISA); higher = thermal stabilisation; K562 cells, 10 uM, 30 min; active = over 0.2 and 3.5 SD of the protein, either way, in both replicates (recomputed)
[1] = compound: COC1=CC=C(C=C1)CN2C=CC3=C2C=C(C=C3)C(=O)NO
Procedure, shortened: (§1)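 Soluble protein was defined as the supernatant after 21,000xg for 90 min. It came from K562 cells at 2×10^6 cells/mL given 10 μM compound for 30 min, heated in aliquots for 3 min across 48°C-58°C, pooled, and extracted in PBS with 0.5% NP-40 at 4°C, and was quantified by TMTpro 16plex LC-MS/MS with equalised channel sums. Thermal stability against control samples, from duplicates, is reported as log2 fold change.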

filanesib = compound: CON(C)C(=O)N1N=C(c2cc(F)ccc2F)S[C@@]1(CCCN)c1ccccc1 [filanesib]
Procedure, shortened: as §1

idasanutlin = compound: COc1cc(C(=O)O)ccc1NC(=O)[C@@H]1N[C@@H](CC(C)(C)C)[C@](C#N)(c2ccc(Cl)cc2F)[C@H]1c1cccc(Cl)c1F [idasanutlin]
Procedure, shortened: as §1

alisertib = compound: COc1cc(Nc2ncc3c(n2)-c2ccc(Cl)cc2C(c2c(F)cccc2OC)=NC3)ccc1C(=O)O [alisertib]
Procedure, shortened: as §1

gefitinib = compound: COc1cc2ncnc(Nc3ccc(F)c(Cl)c3)c2cc1OCCCN1CCOCC1 [gefitinib]
Procedure, shortened: as §1

[2] = compound: COc1cccc2cc(-c3nc([C@H]4CC[C@H](C(=O)O)CC4)n4ncnc(N)c34)[nH]c12
Procedure, shortened: as §1

[3] = compound: CS(=O)(=O)c1ccc(-c2cnc(N)c(C(=O)Nc3ccccc3)n2)cc1
Procedure, shortened: as §1

crizotinib = compound: C[C@@H](Oc1cc(-c2cnn(C3CCNCC3)c2)cnc1N)c1c(Cl)ccc(F)c1Cl [crizotinib]
Procedure, shortened: as §1

[4] = compound: C[C@@H]1COCCN1C2=NC(=NC(=C2)C3(CC3)S(=O)(=O)C)C4=C5C=CNC5=CC=C4
Procedure, shortened: as §1

tozasertib = compound: Cc1cc(Nc2cc(N3CCN(C)CC3)nc(Sc3ccc(NC(=O)C4CC4)cc3)n2)n[nH]1 [tozasertib]
Procedure, shortened: as §1

doramapimod = compound: Cc1ccc(-n2nc(C(C)(C)C)cc2NC(=O)Nc2ccc(OCCN3CCOCC3)c3ccccc23)cc1 [doramapimod]
Procedure, shortened: as §1

ispinesib = compound: Cc1ccc(C(=O)N(CCCN)[C@@H](c2nc3cc(Cl)ccc3c(=O)n2Cc2ccccc2)C(C)C)cc1 [ispinesib]
Procedure, shortened: as §1

[5] = compound: COc1cc2nc(-c3cc(F)ccc3O)nc(N[C@@H]3CNC[C@H]3C(C)(C)O)c2cc1OC
Procedure, shortened: as §1

lapatinib = compound: CS(=O)(=O)CCNCc1ccc(-c2ccc3ncnc(Nc4ccc(OCc5cccc(F)c5)c(Cl)c4)c3c2)o1 [lapatinib]
Procedure, shortened: as §1

pictilisib = compound: CS(=O)(=O)N1CCN(Cc2cc3nc(-c4cccc5[nH]ncc45)nc(N4CCOCC4)c3s2)CC1 [pictilisib]
Procedure, shortened: as §1

gandotinib = compound: Cc1cc(Nc2cc(CN3CCOCC3)c3nc(C)c(Cc4ccc(Cl)cc4F)n3n2)n[nH]1 [gandotinib]
Procedure, shortened: as §1

duvelisib = compound: C[C@H](Nc1ncnc2nc[nH]c12)c1cc2cccc(Cl)c2c(=O)n1-c1ccccc1 [duvelisib]
Procedure, shortened: as §1

[6] = compound: Cc1cc(SCc2sc(-c3ccc(C(F)(F)F)cc3)nc2C)ccc1OCC(=O)O
Procedure, shortened: as §1

zotarolimus = compound: CO[C@H]1C[C@@H]2CC[C@@H](C)[C@@](O)(O2)C(=O)C(=O)N2CCCC[C@H]2C(=O)O[C@H]([C@H](C)C[C@@H]2CC[C@H](n3cnnn3)[C@H](OC)C2)CC(=O)[C@H](C)/C=C(\C)[C@@H](O)[C@@H](OC)C(=O)[C@H](C)C[C@H](C)/C=C/C=C/C=C/1C [zotarolimus]
Procedure, shortened: as §1

[7] = compound: C[C@H](C1=CC=C(C=C1)C(=O)NC2=C3C=CNC3=NC=C2)N
Procedure, shortened: as §1

Measured: log2 fold change

SOS1 (UniProt Q07889)
inactive: [1] 0.094 | filanesib 0.172 | idasanutlin 0.027 | alisertib -0.101 | gefitinib -0.146 | [2] 0.115 | [3] -0.039 | crizotinib -0.084 | [4] 0.047 | tozasertib -0.031 | doramapimod 0.189 | ispinesib -0.016

SNX19 (UniProt Q92543)
inactive: [1] 0.125 | filanesib 0.031 | [5] 0.064 | lapatinib 0.089 | [3] 0.009 | crizotinib -0.24 | [4] 0.112 | doramapimod -0.061

SP4 (UniProt Q02446)
inactive: [1] 0.033 | gefitinib -0.218 | pictilisib -0.281 | crizotinib 0.004 | gandotinib 0.242 | tozasertib -0.069 | doramapimod 0.025 | ispinesib 0.147

SNAP23 isoform 2 (UniProt O00161)
inactive: [1] 0.239 | filanesib -0.121 | alisertib -0.216 | [5] -0.352 | [2] 0.075 | lapatinib 0.234 | [3] 0.24 | crizotinib 0.153 | [4] -0.126 | duvelisib -0.067 | tozasertib -0.218 | [6] 0.26 | doramapimod -0.181

SNX25 (UniProt Q9H3E2)
inactive: [1] 0.022 | filanesib 0.046 | idasanutlin -0.133 | alisertib -0.036 | [5] 0.013 | gefitinib -0.144 | [2] 0.151 | lapatinib -0.125 | [3] 0 | crizotinib -0.022 | duvelisib 0.065 | [6] -0.005 | doramapimod 0.115

SON isoform 9 (UniProt P18583)
inactive: [1] -0.049 | filanesib 0.047 | idasanutlin 0.052 | [5] 0.207 | gefitinib 0.118 | lapatinib 0.081 | pictilisib -0.086 | [3] 0.14 | crizotinib -0.033 | [4] -0.241 | duvelisib -0.088 | gandotinib -0.002 | tozasertib -0.029 | [6] 0.113 | doramapimod -0.117 | ispinesib -0.146

SNX14 (UniProt Q9Y5W7)
inactive: [1] 0.152 | filanesib -0.231 | idasanutlin 0.047 | alisertib -0.11 | [5] -0.003 | gefitinib 0.003 | [2] 0.102 | lapatinib -0.001 | [3] 0.118 | crizotinib 0.083 | [4] 0.032 | duvelisib -0.104 | tozasertib -0.03 | [6] 0.131 | doramapimod 0.062 | ispinesib 0.07

SLC8B1 (UniProt Q6J4K2)
active: crizotinib -0.793 | ispinesib -0.477
inactive: [1] 0.044 | zotarolimus -0.097 | idasanutlin -0.034 | [5] 0.132 | lapatinib 0.066 | pictilisib 0.016 | [7] 0.129 | gandotinib -0.053 | [6] -0.073 | doramapimod 0.046

SNAPC5 (UniProt O75971)
inactive: [1] -0.001 | idasanutlin 0.207 | [5] -0.046 | gefitinib -0.019 | lapatinib 0.038 | pictilisib -0.05 | crizotinib 0.075 | [4] 0.038 | duvelisib 0.073 | gandotinib 0.013 | tozasertib 0.053 | [6] 0.002 | doramapimod 0.008

SMG8 isoform 2 (UniProt Q8ND04)
inactive: [1] 0.119 | filanesib 0.23 | zotarolimus -0.013 | idasanutlin 0.126 | [5] 0.171 | gefitinib 0.155 | lapatinib 0.039 | pictilisib 0.133 | [3] 0.056 | crizotinib -0.002 | [4] -0.232 | [7] 0.114 | duvelisib -0.155 | gandotinib 0.057 | tozasertib -0.05 | [6] 0.142 | doramapimod 0.126 | ispinesib -0.129

SLC9A6 isoform 3 (UniProt Q92581)
inactive: zotarolimus -0.051 | idasanutlin 0.098 | [5] 0.055 | lapatinib -0.072 | [7] -0.018 | [6] -0.137

SNX13 (UniProt Q9Y5W8)
inactive: filanesib 0.016 | alisertib 0.111 | [2] 0.268 | [3] 0.032 | [4] 0.152 | duvelisib 0.07 | [6] -0.052 | ispinesib -0.07

SNRPC (UniProt Q5TAL2)
inactive: filanesib -0.048 | zotarolimus 0.027 | idasanutlin 0.086 | alisertib -0.122 | [5] 0.014 | gefitinib 0.007 | [2] -0.006 | lapatinib -0.118 | pictilisib 0.113 | [3] 0.065 | [4] -0.04 | [7] -0.061 | duvelisib 0.124 | gandotinib 0.265 | tozasertib -0.104 | [6] -0.143 | ispinesib -0.008

SMIM29 (UniProt Q86T20)
inactive: filanesib 0.094 | zotarolimus 0.09 | [3] 0.108 | [7] 0.128 | duvelisib 0.01 | [6] -0.219

SMARCA2 (UniProt P51531)
inactive: idasanutlin -0.137 | alisertib -0.003 | gefitinib 0.023 | [2] 0.036 | pictilisib 0 | gandotinib -0.225 | ispinesib -0.027

SMR3B (UniProt P02814)
inactive: gefitinib 0.084

SNX30 (UniProt Q5VWJ9)
inactive: filanesib 0.152 | [3] 0.169 | [4] -0.058

SMAGP (UniProt Q0VAQ4)
inactive: filanesib 0.191 | zotarolimus 0.113 | idasanutlin 0.037 | alisertib -0.207 | [5] -0.197 | gefitinib 0.054 | [2] -0.26 | lapatinib -0.307 | [3] -0.175 | [4] 0.17 | [7] -0.053 | duvelisib 0.04 | tozasertib 0.031 | [6] -0.112

SMARCAL1 (UniProt Q9NZC9)
inactive: alisertib 0.128 | [2] -0.435 | ispinesib 0.097

SLX4IP (UniProt Q5VYV7)
inactive: [5] 0.046 | lapatinib 0.26

SOX6 (UniProt P35712)
inactive: zotarolimus 0.092 | alisertib 0.045 | [5] -0.12 | [2] 0.092 | lapatinib -0.015 | [7] -0.124 | ispinesib 0.039

SNAP47 (UniProt Q5SQN1)
inactive: [4] 0.1

SNIP1 (UniProt Q8TAD8)
inactive: pictilisib -0.128 | gandotinib 0.04

SNTB2 (UniProt Q13425)
inactive: filanesib 0.007 | zotarolimus 0.011 | idasanutlin -0.032 | [5] 0.041 | gefitinib 0.016 | lapatinib -0.013 | pictilisib 0.095 | [3] 0.051 | [4] 0.046 | [7] -0.024 | duvelisib 0.131 | gandotinib -0.029 | tozasertib -0.061 | [6] 0.222 | ispinesib -0.324

SP6 (UniProt Q3SY56)
inactive: filanesib -0.089 | zotarolimus -0.054 | idasanutlin 0.098 | alisertib 0.101 | [5] 0.09 | gefitinib 0.037 | [2] 0.294 | lapatinib 0.119 | [3] 0.033 | [4] -0.097 | [7] -0.024 | duvelisib 0.015 | tozasertib 0.007 | [6] -0.028 | ispinesib -0.139

SMIM19 (UniProt Q96E16)
inactive: idasanutlin -0.06 | [5] -0.126 | lapatinib 0.031 | duvelisib 0.268 | tozasertib -0.211 | [6] -0.216 | ispinesib 0.094

SMIM13 (UniProt P0DJ93)
inactive: filanesib 0.337 | alisertib 0.012 | [5] -0.063 | gefitinib -0.018 | [2] 0.061 | lapatinib -0.086 | [3] 0.121 | ispinesib 0.063

SLPI (UniProt P03973)
inactive: [1] 1.64 | crizotinib 1.43 | doramapimod -0.203 | ispinesib -0.109

SMG6 (UniProt Q86US8)
inactive: filanesib -0.138 | zotarolimus -0.013 | gefitinib -0.028 | [3] 0.003 | [4] 0.073 | [7] 0.615 | duvelisib 0.093 | tozasertib -0.027 | [6] 0.766

SMARCD1 (UniProt Q96GM5)
inactive: alisertib 0.046 | [2] 0.084
